# This is one part of the list.
# B1: RobpsCRA (Robinia pseudoacacia) (protein)
# chain: IKGGYWYSGSGLAVSDINPSHFTHLFCAFADLDPNTNKLTISSSNAAAFSTFTQTVRAKNPSVKTLLSIGGGGGRALAAVFANMASQASRRKSFIDSSIQLARRNNFHGLDLDWEYPSSDIDKTNFASLIREWRAAVATESSTSGTPALLLSAAVGGSDQITPLKYYPGEAIANNLDWVNVMTYDLYTSDSYPTLTQPPAPLFYPRGIFSADEGITKWIQSGVPESKLALGLPFYGFKWRLSDPNNHGLFAPATQGLGAVKYKDIVNTGGQVEFDSTYVTNYCFKGTDWYGYDDTQSISAKVAYAKQRGLFGYFAWHIEQDSNWALS
# Legend:
# Test in all cases: glycan array binding signal (z-score within array); higher = stronger binding
# Details in all cases: glycan notation: IUPAC condensed, linker removed
# [1] = target: Neu5Ac(a2-3)Gal(b1-3)[Fuc(a1-4)]GlcNAc
# Procedure, shortened: (§1)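 Glycan array data came from 3228 arrays in the Consortium for Functional Glycomics database, and only arrays with an available protein sequence were kept. Glycan names were put into IUPAC-condensed notation, and columns mapping to the same glycan were averaged. The binding signal is a within-array Z-score, averaged across arrays of one protein sequence run at different concentrations or buffers and across linkers. A negative Z-score can be read as non-binding.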
# [2] = target: Neu5Ac(a2-3)Gal(b1-3)[Fuc(a1-4)]GlcNAc(b1-3)Gal(b1-3)[Fuc(a1-4)]GlcNAc
# Procedure, shortened: as §1
# [3] = target: Neu5Ac(a2-3)Gal(b1-3)[Fuc(a1-4)]GlcNAc(b1-3)Gal(b1-4)[Fuc(a1-3)]GlcNAc
# Procedure, shortened: as §1
# [4] = target: Neu5Ac(a2-3)Gal(b1-3)[GlcNAc(b1-6)]GalNAc
# Procedure, shortened: as §1
# [5] = target: Neu5Ac(a2-3)Gal(b1-3)[Neu5Ac(a2-6)]GalNAc
# Procedure, shortened: as §1
# [6] = target: Neu5Ac(a2-3)Gal(b1-3)[Neu5Ac(a2-6)]GlcNAc(b1-3)[Fuc(a1-3)[Gal(b1-4)]GlcNAc(b1-6)]Gal(b1-4)Glc
# Procedure, shortened: as §1
# [7] = target: Neu5Ac(a2-3)Gal(b1-3)]Neu5Ac(a2-3)Gal(b1-4)]GlcNAc
# Procedure, shortened: as §1
# [8] = target: Neu5Ac(a2-3)Gal(b1-4)Glc
# Procedure, shortened: as §1
# [9] = target: Neu5Ac(a2-3)Gal(b1-4)GlcNAc
# Procedure, shortened: as §1
# [10] = target: Neu5Ac(a2-3)Gal(b1-4)GlcNAc(b1-2)Man
# Procedure, shortened: as §1
# [11] = target: Neu5Ac(a2-3)Gal(b1-4)GlcNAc(b1-2)Man(a1-3)[GlcNAc(b1-4)][Neu5Ac(a2-3)Gal(b1-4)GlcNAc(b1-2)Man(a1-6)]Man(b1-4)GlcNAc(b1-4)GlcNAc
# Procedure, shortened: as §1
# [12] = target: Neu5Ac(a2-3)Gal(b1-4)GlcNAc(b1-2)Man(a1-3)[Neu5Ac(a2-3)Gal(b1-4)GlcNAc(b1-2)Man(a1-6)]Man(b1-4)GlcNAc(b1-4)GlcNAc
# Procedure, shortened: as §1
# [13] = target: Neu5Ac(a2-3)Gal(b1-4)GlcNAc(b1-2)Man(a1-3)[Neu5Ac(a2-3)Gal(b1-4)GlcNAc(b1-2)Man(a1-6)]Man(b1-4)GlcNAc(b1-4)[Fuc(a1-6)]GlcNAc
# Procedure, shortened: as §1
# [14] = target: Neu5Ac(a2-3)Gal(b1-4)GlcNAc(b1-2)Man(a1-3)[Neu5Ac(a2-6)Gal(b1-4)GlcNAc(b1-2)Man(a1-6)]Man(b1-4)GlcNAc(b1-4)GlcNAc
# Procedure, shortened: as §1
# [15] = target: Neu5Ac(a2-3)Gal(b1-4)GlcNAc(b1-2)[Neu5Ac(a2-3)Gal(b1-4)GlcNAc(b1-4)]Man(a1-3)[GlcNAc(b1-4)][Neu5Ac(a2-3)Gal(b1-4)GlcNAc(b1-2)[Neu5Ac(a2-3)Gal(b1-4)GlcNAc(b1-6)]Man(a1-6)]Man(b1-4)GlcNAc(b1-4)GlcNAc
# Procedure, shortened: as §1
# [16] = target: Neu5Ac(a2-3)Gal(b1-4)GlcNAc(b1-2)[Neu5Ac(a2-3)Gal(b1-4)GlcNAc(b1-4)]Man(a1-3)[GlcNAc(b1-4)][Neu5Ac(a2-3)Gal(b1-4)GlcNAc(b1-4)Man(a1-6)]Man(b1-4)GlcNAc(b1-4)GlcNAc
# Procedure, shortened: as §1
# [17] = target: Neu5Ac(a2-3)Gal(b1-4)GlcNAc(b1-2)[Neu5Ac(a2-3)Gal(b1-4)GlcNAc(b1-6)]Man(a1-6)[Neu5Ac(a2-3)Gal(b1-4)GlcNAc(b1-2)Man(a1-3)]Man(b1-4)GlcNAc(b1-4)GlcNAc
# Procedure, shortened: as §1
# [18] = target: Neu5Ac(a2-3)Gal(b1-4)GlcNAc(b1-2)[Neu5Ac(a2-3)Gal(b1-4)GlcNAc(b1-6)]Man(a1-6)[Neu5Ac(a2-3)Gal(b1-4)GlcNAc(b1-2)Man(a1-3)][GlcNAc(b1-4)]Man(b1-4)GlcNAc(b1-4)GlcNAc
# Procedure, shortened: as §1
# [19] = target: Neu5Ac(a2-3)Gal(b1-4)GlcNAc(b1-3)Gal
# Procedure, shortened: as §1
# [20] = target: Neu5Ac(a2-3)Gal(b1-4)GlcNAc(b1-3)Gal(b1-3)GlcNAc
# Procedure, shortened: as §1
# [21] = target: Neu5Ac(a2-3)Gal(b1-4)GlcNAc(b1-3)Gal(b1-4)GlcNAc
# Procedure, shortened: as §1
# [22] = target: Neu5Ac(a2-3)Gal(b1-4)GlcNAc(b1-3)Gal(b1-4)GlcNAc(b1-2)Man(a1-3)[Neu5Ac(a2-3)Gal(b1-4)GlcNAc(b1-3)Gal(b1-4)GlcNAc(b1-2)Man(a1-6)]Man(b1-4)GlcNAc(b1-4)GlcNAc
# Procedure, shortened: as §1
# [23] = target: Neu5Ac(a2-3)Gal(b1-4)GlcNAc(b1-3)Gal(b1-4)GlcNAc(b1-3)Gal(b1-4)GlcNAc
# Procedure, shortened: as §1
# [24] = target: Neu5Ac(a2-3)Gal(b1-4)GlcNAc(b1-3)Gal(b1-4)GlcNAc(b1-3)Gal(b1-4)GlcNAc(b1-2)Man(a1-3)[Neu5Ac(a2-3)Gal(b1-4)GlcNAc(b1-3)Gal(b1-4)GlcNAc(b1-3)Gal(b1-4)GlcNAc(b1-2)Man(a1-6)]GalNAc
# Procedure, shortened: as §1
# [25] = target: Neu5Ac(a2-3)Gal(b1-4)GlcNAc(b1-3)Gal(b1-4)GlcNAc(b1-3)GalNAc
# Procedure, shortened: as §1
# [26] = target: Neu5Ac(a2-3)Gal(b1-4)GlcNAc(b1-3)Gal(b1-4)GlcNAc(b1-3)[Neu5Ac(a2-3)Gal(b1-4)GlcNAc(b1-3)Gal(b1-4)GlcNAc(b1-6)]GalNAc
# Procedure, shortened: as §1
# [27] = target: Neu5Ac(a2-3)Gal(b1-4)GlcNAc(b1-3)Gal(b1-4)GlcNAc(b1-6)[Gal(b1-3)]GalNAc
# Procedure, shortened: as §1
# [28] = target: Neu5Ac(a2-3)Gal(b1-4)GlcNAc(b1-3)Gal(b1-4)[Fuc(a1-3)]GlcNAc
# Procedure, shortened: as §1
# [29] = target: Neu5Ac(a2-3)Gal(b1-4)GlcNAc(b1-3)GalNAc
# Procedure, shortened: as §1
# [30] = target: Neu5Ac(a2-3)Gal(b1-4)GlcNAc(b1-3)[Neu5Ac(a2-3)Gal(b1-4)GlcNAc(b1-6)]GalNAc
# Procedure, shortened: as §1
binder,measurement,setting,value
B1,glycan array binding signal (z-score),[1],-0.434
same,glycan array binding signal (z-score),[2],-0.559
same,glycan array binding signal (z-score),[3],-0.344
same,glycan array binding signal (z-score),[4],0.725
same,glycan array binding signal (z-score),[5],-0.113
same,glycan array binding signal (z-score),[6],-0.376
same,glycan array binding signal (z-score),[7],-0.503
same,glycan array binding signal (z-score),[8],-0.481
same,glycan array binding signal (z-score),[9],-0.255
same,glycan array binding signal (z-score),[10],0.434
same,glycan array binding signal (z-score),[11],1.4
same,glycan array binding signal (z-score),[12],0.078
same,glycan array binding signal (z-score),[13],0.582
same,glycan array binding signal (z-score),[14],-0.281
same,glycan array binding signal (z-score),[15],-0.544
same,glycan array binding signal (z-score),[16],0.18
same,glycan array binding signal (z-score),[17],-0.526
same,glycan array binding signal (z-score),[18],-0.509
same,glycan array binding signal (z-score),[19],0.104
same,glycan array binding signal (z-score),[20],0.234
same,glycan array binding signal (z-score),[21],0.083
same,glycan array binding signal (z-score),[22],-0.813
same,glycan array binding signal (z-score),[23],-0.227
same,glycan array binding signal (z-score),[24],0.307
same,glycan array binding signal (z-score),[25],0.576
same,glycan array binding signal (z-score),[26],-0.108
same,glycan array binding signal (z-score),[27],-0.682
same,glycan array binding signal (z-score),[28],0.187
same,glycan array binding signal (z-score),[29],-0.671
same,glycan array binding signal (z-score),[30],0.369

# Two records drawn at random from those above:
binder,measurement,setting,value
B1,glycan array binding signal (z-score),[10],0.434
same,glycan array binding signal (z-score),[25],0.576
